From patent US20120178699A1
These are yes or no findings as the source states them, for the method shown. In cells and extracts the contact can be indirect. Some entries that bind do so weakly or less than the wild type. Sequences can lack the tags named with a protein.

Sequences of proteins named here, by UniProt entry; tags and fusion partners are left off. Residues count along the entry.
UniProt P08069, residues 31-1367: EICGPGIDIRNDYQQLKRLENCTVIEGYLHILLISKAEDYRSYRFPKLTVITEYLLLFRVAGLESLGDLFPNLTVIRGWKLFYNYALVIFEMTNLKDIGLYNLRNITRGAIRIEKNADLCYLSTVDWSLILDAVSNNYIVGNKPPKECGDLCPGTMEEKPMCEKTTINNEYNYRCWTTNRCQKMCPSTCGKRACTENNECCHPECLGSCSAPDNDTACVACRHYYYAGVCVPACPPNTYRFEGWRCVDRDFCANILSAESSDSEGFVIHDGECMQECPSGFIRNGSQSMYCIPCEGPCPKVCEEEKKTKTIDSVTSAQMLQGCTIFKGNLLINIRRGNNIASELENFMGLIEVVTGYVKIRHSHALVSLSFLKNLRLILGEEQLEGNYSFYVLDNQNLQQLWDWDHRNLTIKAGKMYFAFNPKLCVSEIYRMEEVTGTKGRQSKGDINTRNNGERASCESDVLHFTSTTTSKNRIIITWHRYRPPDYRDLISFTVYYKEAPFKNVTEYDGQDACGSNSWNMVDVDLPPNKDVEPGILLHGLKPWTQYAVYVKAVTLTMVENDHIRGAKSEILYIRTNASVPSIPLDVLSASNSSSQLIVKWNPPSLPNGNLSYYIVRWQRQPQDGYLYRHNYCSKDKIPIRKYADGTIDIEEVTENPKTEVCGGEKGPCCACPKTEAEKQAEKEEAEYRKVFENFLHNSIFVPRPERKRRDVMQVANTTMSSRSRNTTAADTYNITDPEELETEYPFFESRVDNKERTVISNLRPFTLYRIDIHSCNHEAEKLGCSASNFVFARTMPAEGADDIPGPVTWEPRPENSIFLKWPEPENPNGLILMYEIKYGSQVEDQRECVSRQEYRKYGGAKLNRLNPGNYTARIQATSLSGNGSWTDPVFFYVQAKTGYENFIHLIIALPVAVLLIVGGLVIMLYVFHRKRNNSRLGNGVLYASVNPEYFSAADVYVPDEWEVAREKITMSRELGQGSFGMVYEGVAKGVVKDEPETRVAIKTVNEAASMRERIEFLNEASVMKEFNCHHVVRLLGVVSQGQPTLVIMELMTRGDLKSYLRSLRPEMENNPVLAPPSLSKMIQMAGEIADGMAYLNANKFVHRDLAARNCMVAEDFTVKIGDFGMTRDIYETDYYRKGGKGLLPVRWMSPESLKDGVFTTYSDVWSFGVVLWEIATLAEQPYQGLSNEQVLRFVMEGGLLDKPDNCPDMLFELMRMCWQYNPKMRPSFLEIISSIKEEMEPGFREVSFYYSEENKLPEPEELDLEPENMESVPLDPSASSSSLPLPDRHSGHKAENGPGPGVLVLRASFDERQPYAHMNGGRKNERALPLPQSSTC

What was measured:
[1] = target: IGF-1 receptor (UniProt P08069); assay: reciprocal co-immunoprecipitation and Western blot, MCF-7 cells stably or transiently expressing HA-klotho
[2] = target: IGF-1 receptor (UniProt P08069); assay: co-immunoprecipitation from breast cancer cell lysates
[3] = target: IGF-1 receptor (UniProt P08069); assay: co-immunoprecipitation (discussion of the result)

Measured: binding

B1: HA-klotho protein (protein, not shown: small tags and cut ends)
chain: AEPGQGAQTWARFARAPAPEAAGLLHDTFPDGFLWAVGSAAYQTEGGWRQHGKGASIWDTFTHHSGAAPSDSPIVVAPSGAPSPPLSSTGDVASDSYNNVYRDTEGLRELGVTHYRFSISWARVLPNGTAGTPNREGLRYYRRLLERLRELGVQPVVTLYHWDLPQRLQDTYGGWANRALADHFRDYAELCFRHFGGQVKYWITIDNPYVVAWHGYATGRLAPGVRGSSRLGYLVAHNLLLAHAKVWHLYNTSFRPTQGGRVSIALSSHWINPRRMTDYNIRECQKSLDFVLGWFAKPIFIDGDYPESMKNNLSSLLPDFTESEKRLIRGTADFFALSFGPTLSFQLLDPNMKFRQLESPNLRQLLSWIDLEYNHPPIFIVENGWFVSGTTKRDDAKYMYYLKKFIMETLKAIRLDGVDVIGYTAWSLMDGFEWHRGYSIRRGLFYVDFLSQDKELLPKSSALFYQKLIEDNGFPPLPENQPLEGTFPCDFAWGVVDNYVQVDTTLSQFTDPNVYLWDVHHSKRLIKVDGVVAKKRKPYCVDFSAIRPQITLLREMRVTHFRFSLDWALILPLGNQTQVNHTVLHFYRCMISELVHANITPVVALWQPAAPHQGLPHALAKHGAWENPHTALAFADYANLCFKELGHWVNLWITMNEPNTRNMTYRAGHHLLRAHALAWHLYDDKFRAAQKGKISIALQADWIEPACPFSQNDKEVAERVLEFDIGWLAEPIFGSGDYPRVMRDWLNQKNNFLLPYFTEDEKKLVRGSFDFLAVSHYTTILVDWEKEDPMKYNDYLEVQEMTDITWLNSPSQVAVVPWGLRKVLNWLRFKYGDLPMYVTANGIDDDPHAEQDSLRIYYIKNYVNEALKAYVLDDINLCGYFAYSLSDRSAPKSGFYRYAANQFEPKPSMKHYRRIIDSNGFLGSGTLGRFCPEEYTVCTECGFFQTRKSLLVFISFLVFTFIISLALIFHYSKKGQRSYK
binds: all assays above
